Test results reported in patent US20170051068A1.
Positions count from the first letter of the chain named. These are yes or no findings as the source states them, for the method shown. Some binding calls cover weakened binding; strength is not graded here. Each block holds one binder with its values, some of them ahead of it.

Sequences of proteins named here, by UniProt entry; tags and fusion partners are left off. A change or cut given only in a name is not applied to a line headed by its entry.
UniProt Q02223: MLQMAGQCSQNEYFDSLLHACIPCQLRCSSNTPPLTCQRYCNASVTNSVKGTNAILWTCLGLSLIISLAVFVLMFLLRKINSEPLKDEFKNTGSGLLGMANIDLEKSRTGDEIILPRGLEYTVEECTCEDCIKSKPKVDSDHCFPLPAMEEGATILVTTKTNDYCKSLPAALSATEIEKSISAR

Experiments:
[1] = target: monomeric human BCMA (human) (UniProt Q02223); assay: SPR
[2] = target: human BCMA on cells (HEK cells expressing human BCMA; BCMA+ cell lines; patient plasma cells) (human) (UniProt Q02223); assay: flow cytometry, BCMA-expressing cells

binding [1]: binds
binding [2]: binds
B1: BCMB177 (antibody, human IgG4 S228P, lambda, F234A L235A, V domains shown)
VH: QLQLQESGPGLVKPSETLSLTCTVSGGSISSSSYFWGWIRQPPGKGLEWIGSIYYSGRTYYNPSLKSRVTISVDTSKNQFSLKLSSVTAADTAVYYCARHDGATAGLFDYWGQGTLVTVSS
VL: SYVLTQPPSVSVAPGQTARITCGGNNIGSKSVHWYQQPPGQAPVVVVYDDSDRPSGIPERFSGSNSGNTATLTISRVEAGDEAVYYCQVWDSSSDHVVFGGGTKLTVLG

binding [1]: binds
B2: BCMB176 (antibody, human IgG4 S228P, lambda, F234A L235A, V domains shown)
VH: B1 VH with R58I
VL: B1 VL

binding [1]: binds
B3: BCMB128 (antibody, human IgG4 S228P, lambda, F234A L235A, V domains shown)
VH: B1 VH with S32G, R58I
VL: B1 VL
